For 104 sequences, z-score results are on record in PubChem BioAssay AID1347423 (Functional Genomics Laboratory (NCATS/FGL), 2020).

In all, about 52,000 sequences went through this assay and about 210 (0.4%) were called active.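 How the source made its calls: active means gene whose silencing raises cell survival under the drug, median off-target-corrected z-score across its silencing RNAs 2 or more; inactive means the rest.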 This is one part of the list.

The test in a line: Resistance to Poly (ADP-Ribose) Polymerase inhibitor: Gene Identification via Genome-wide siRNA Screen. The following applies: mouse BRCA2 R2336H ES cells, olaparib, CellTiter-Glo viability; stronger effect = higher value. In outline: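 Mouse BRCA2 R2336H ES cells were reverse-transfected with siRNA (20 nM final), treated at 48 h with 500 nM olaparib, and read by CellTiter-Glo after 72 h. Scores: MAD-based z per siRNA, median per gene, seed off-target correction.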
A general note: In ATP-based viability assays light output follows the ATP content of the culture.
In the case of CCGCCUACGUAAACACCAATT against Tnk2, the z-score was inactive: 1.14.

Consider “GGGAGUUUUCAGACAUUCUTT against A530050P17Rik”, for which the z-score is inactive: -0.0908.

Regarding CGAUUAUCGGCCCAGCAAATT against Bmp1, the z-score is inactive: -1.04.

Turning to GGAUCAGUGACUGAUCUUGTT against Myo3a, the z-score was inactive: 0.772.

As to “GGAGGAACUGAUGACUCUGTT against 2310005P05Rik”, the z-score was inactive: 0.0654.

As to CAGCAUGAUGAUGGAGACCTT against Sox1, the z-score was inactive: -0.476.

Turning to “GCCUGAGAUCGUGAACACUTT against 2510048L02Rik”, the z-score is inactive: -0.446.

For the sequence GCAUGAGAAGAUUUAUAGGTT against Stac, the z-score is inactive: 0.589.

Take CCUUAGAUUCACUCAGCACTT against Dbpht2: the z-score is inactive: 0.641.

As for CCAUCAUUGCUCGUAUUGGTT against Olfr656, the z-score is inactive: 0.017.

On to CCUGGAAUCUGUCCCUCAUTT against Olfr262, for which the z-score was inactive: -1.01.

GGUUACAGCUUUAAGGUAATT against Ercc3: the z-score is inactive: -1.24.

In the case of GGCUCUGUUCUCCACAUUGTT against Phf5a, the z-score was inactive: -2.58.

For CGCCAUGUUUAACAAAUUGTT against Limk2, the z-score was inactive: -0.417.

In the case of GGCCCAUAGUUGACUACAUTT against 8-Sep, the z-score was inactive: 0.301.

In the case of CCUAUUAUCUACCUUACAATT against Enpp5, the z-score is inactive: -0.364.

With GGACAAGAAUAAGUACAACTT against Rpl5, the z-score is inactive: -2.78.

For GGAGAGAUGGUAUUGUUGGTT against Olfr1298, the z-score is inactive: -0.373.

As to “AGUCGCCAACCUAUUAUUUTT against 6230427J02Rik”, the z-score is inactive: 0.875.

Consider “GGUUCUCUGAUACCCACUCTT against 4931440L10Rik”, for which the z-score is inactive: 1.33.

Turning to GAGCAUCUCAAGGAUCUUCTT against Syngr4, the z-score is inactive: -1.26.

On to GGUGUGUGACUUUUUUUGUTT against Ube2d1, for which the z-score was inactive: 1.17.

Consider CCAUGACAAAUUCAAGCAGTT against Atf1, for which the z-score was inactive: 0.592.

For GGAGAUUACCGAAGCUGGUTT against BC051227, the z-score is inactive: -0.926.

As to GUUCCGACUGAACUUGUAUTT against Psmb3, the z-score was inactive: 2.21.

For the sequence “GGUAUUCAAUAUGGUGAAGTT against 2310001H12Rik”, the z-score was inactive: -0.545.

In the case of AUGCUUUUUGGAGCCAUAUTT against Olfr307, the z-score was inactive: 0.809.

As for CGUGGUGAUAUUGGAUUAATT against Myef2, the z-score was inactive: 1.21.

For “GGAGAGUGAAGAUUAAAUCTT against 0610012C01Rik”, the z-score was inactive: 0.258.

As to GGCUAUUAAAGAUACAGCGTT against Sfxn4, the z-score is inactive: 0.431.

As to GCAACAAGAGGGCAGAAUGTT against Olfr518, the z-score was inactive: -1.61.

On to GCUUACUACCAUUGGGAAUTT against LOC434881, for which the z-score is inactive: -1.02.

As for GGAAGAAGAAUAAGGCUUUTT against Kua, the z-score is inactive: 0.126.

As for “GGAGGAAUUCUUGAAGAUUTT against C920001D21Rik”, the z-score is inactive: -0.162.

On to GGUCAUUUCUGUCUUCUACTT against Olfr323, for which the z-score is inactive: -0.318.

For GGGUUUCAACGGCUGUGACTT against Mef2d, the z-score is inactive: 0.799.

“GCUGCCGUACAGUCUCUAATT against D230010M03Rik”: the z-score is inactive: -2.96.

On to CCUCGAGUUCGGAAACAGATT against Chd8, for which the z-score was inactive: -1.46.

For the sequence “GGUGUGUGCUAGGACUGAGTT against 4930529M08Rik”, the z-score is inactive: -0.945.

With GCAAACGUAUCAAGAGCAATT against Naca, the z-score is inactive: -1.79.

On to “GGUCAUAGAAUUCAUGUCCTT against E230016K23Rik”, for which the z-score was inactive: 1.02.

Consider GGUAGUUCAGAUCUGAUUUTT against Polydom, for which the z-score was inactive: -0.515.

On to CCAGAAUGUAUCCAGGCCUTT against Siat7d, for which the z-score is inactive: 0.667.

For GCCAACGCAGCAAAAGCUCTT against D4Wsu53e, the z-score is inactive: 0.269.

As to CGAAUAAAGCUUCAUUGUGTT against Atp5k, the z-score was inactive: 0.0614.

For GCUUCAGUCGAAGUUCCUUTT against Zfp189, the z-score is inactive: 0.544.

In the case of GGGUGUUGACAUAAAAAAUTT against Nsdhl, the z-score is inactive: -0.151.

In the case of “CGGUCAUUAAUGAAGCCUGTT against E430002G05Rik”, the z-score was inactive: -1.83.

As for GCUUGAAGGUAUAAUUUCATT against Cldn12, the z-score is inactive: -1.92.

Take “GGAGGUACUUCCGAUUGAGTT against 1700058C13Rik”: the z-score was inactive: 0.606.

On to GGUUGUUCCCGGAAGAAUCTT against Rtn4r, for which the z-score is inactive: -1.16.

As for “CCACUAUCCCACCAAUCACTT against 2210415F13Rik”, the z-score is inactive: -0.19.

Take CCACCACUCUAUCAGAGGUTT against Evx1: the z-score is inactive: 0.696.

For the sequence GUACGUCAUGGGUCACUUCTT against Pomc1, the z-score is inactive: -0.0856.

With GGUUGGGAUACAUUCAACGTT against Mscp, the z-score is inactive: 0.871.

As to “GGAAUUUAAAAGUAGCAAGTT against 6430601A21Rik”, the z-score was inactive: 1.5.

For the sequence GGAUGGCGAUAAGAAGAUUTT against C3, the z-score was inactive: -0.936.

CGAGCUAUUUACUUUGAUGTT against Gfm: the z-score was inactive: -0.419.

For GGCAGCCCUUUUGCUAAGATT against Neurod1, the z-score is inactive: 0.891.

As for UGCUUUGCAUCUGGCUGUATT against Hs3st3b, the z-score is inactive: 0.0196.

For the sequence GGUAAAGAUAAUUGACAACTT against Isp2, the z-score is inactive: -0.399.

With GGUGGAGGGUUUCAUCAAUTT against Alg3, the z-score is inactive: 0.271.

As for GGCUUUGCUUUCCUUACUUTT against RbmY1a1, the z-score was inactive: 1.02.

GGAUCGAGUUUGGUGUAGATT against Usp10: the z-score was inactive: 0.787.

Turning to CCCUUACUUAGUCUCCACUTT against Olig1, the z-score is inactive: 0.734.

As to GGCUUGCUAGAUAACAUCATT against Timm44, the z-score was inactive: -2.46.

As for GGAAUUUCACUAACCUUAGTT against Tert, the z-score was inactive: -2.65.

Take GCGAAUAUCCAACCUAUCUTT against Itgb7: the z-score was inactive: -0.459.

GGAACUGGCCAAUUACUACTT against Rad52b: the z-score was inactive: -0.981.

As for GCUUCUAUGAUCGUACGGATT against Nid1, the z-score is inactive: -0.791.

On to GGCAUCUGAAUUCCCUUCUTT against Idb2, for which the z-score was inactive: 0.603.

For the sequence CCCUCAAUGCUGGAAAACCTT against Nol4, the z-score was inactive: 0.694.

In the case of GGGCGUAGAAACAGCAACUTT against Ushbp1, the z-score is inactive: -0.768.

As to “GCAGCUUUGCUCAGCCCAATT against 1700028O09Rik”, the z-score was inactive: -0.647.

Turning to GGCCACCCUUUCAGAAAUGTT against Fut9, the z-score was inactive: 0.762.

For the sequence GGGACGACUCUUUCUUAUGTT against Ors16, the z-score is inactive: 0.303.

In the case of “CGGGAACUCACCGAAAAGATT against 4921521N14Rik”, the z-score was inactive: 0.566.

In the case of GCUGUUUAAAGAUAUGUGGTT against Nfx1, the z-score is inactive: 0.852.

Take GGAGGUGGUACAGUAGCAUTT against Olfm4: the z-score is inactive: 1.41.

Take GCGAACCUACGACUUCUACTT against Chst8: the z-score is inactive: -0.189.

In the case of “GGAAUUUCAUACAAACUCUTT against A730024A03Rik”, the z-score is inactive: -1.31.

In the case of “GGCAUGAGAUUCUCAAUCCTT against 8430415E04Rik”, the z-score is inactive: -0.167.

Turning to “GGAUUCUGUCUCCAGAUAUTT against 1700040L02Rik”, the z-score is inactive: 0.243.

CGAAAGUGAUCAAAUAGAATT against Zcchc12: the z-score is inactive: -0.722.

Turning to GGUGGCUUCAUUUUAGAAGTT against Xpa, the z-score was inactive: -0.16.

On to GGAAAACAAUGCCAAAGGGTT against Evx2, for which the z-score is inactive: -1.13.

Regarding “GGCCGUUUUAAGAAAGGCCTT against 5830427D03Rik”, the z-score is inactive: -0.137.

As for CCGAAUACGUGAAGACGCATT against Slc25a1, the z-score is inactive: 0.487.

As for GGUCUUGGCACAAUUACAUTT against Actl6a, the z-score is inactive: -2.05.

“GGGUGCAAGGGCACCAAAATT against 1700049M11Rik”: the z-score was inactive: -1.72.

In the case of GGUACCAACACAAGUAACATT against Dyrk1a, the z-score is inactive: 0.447.

Turning to “GGCCAUCCUGGGCUAAAUATT against 4833412N02Rik”, the z-score was inactive: 1.7.

As to GGAGAUCUAACUCUGUAUGTT against Hpse, the z-score was inactive: 0.757.

Take GGUGUGUUACUGAUGAUUCTT against Olfr669: the z-score was inactive: 1.16.

Consider GGACAGCCUUGUGUCAAAATT against Ramp2, for which the z-score is inactive: 2.08.

Regarding GGAAAAGGGCAAGCACAUGTT against Ard1, the z-score is inactive: 0.142.

Take GGUUACCCAUGCAGUUGUUTT against Hspa5: the z-score was inactive: -0.353.

Regarding GGCUCAGAACCUUCUGAAATT against Exoc7, the z-score was inactive: 0.212.

In the case of CCAAACCAUAUGGAGAAGGTT against Obfc1, the z-score was inactive: 1.16.

Turning to GCAGAAGCUAUAUAGCAAGTT against AU041707, the z-score is inactive: -0.537.

Turning to GGUGUCAUUCACAAAAACUTT against Csnk1g1, the z-score was inactive: 0.594.

For the sequence CCUUGAUCAUUUUAAUUGGTT against Olfr913, the z-score is inactive: 0.615.

In the case of “GGAAUUGAAACCUGAUGUUTT against 2810036K01Rik”, the z-score was inactive: -2.32.

In the case of GCUAAUUAAACGAAGCAUCTT against Lmo4, the z-score is inactive: -0.349.
